These are yes or no findings as the source states them, for the method shown. Binding seen in cells or lysates may run through a third protein. Some entries that bind do so weakly or less than the wild type.

This experiment has as its target GST-tagged AIF (GST-AIF) immobilized on glutathione-Sepharose beads (human) [GST: P08515]. Description: competitive GST pull-down, GST-AIF preincubated with peptide before His-MIA40.

As for MSYCRQEGKDRIIFVTKEDHETPSSAE [synthetic peptide MIA40 1-27], the binding entry is “binds”.

These data come from patent publication US20160031955A1 (INSERM INSTITUT NATIONAL DE LA SANT ET DE LA RECHERCHE M …, published 2016).
